Taken from: PubChem BioAssay AID1224826 (NIAID, 2016)

- Aim: 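Knock-downs that raise or lower Tnf reporter signal after endotoxin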 (primary screen)
- System: RAW264.7 G9 macrophages from mouse bearing reporters for p65 (GFP) and the Tnf promoter (mCherry)
- Reagent: siRNA pool against mouse genes, 100 nM
- Duration: 16 h of LPS stimulation, after 2 days of siRNA transfection
- Treatment: bacterial lipopolysaccharide (Salmonella minnesota R595), 10 ng/ml
- Read-out: 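Imaged Tnf reporter mCherry in nuclei, minus background, normalised per plate to the median and expressed as robust z-scores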
- Reading the numbers: Tnf reporter robust z-score: higher = stronger Tnf promoter reporter signal after LPS; Tnf reporter intensity: higher = stronger Tnf promoter reporter signal
- Rule for the call: 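Called active when robust z-score is at most -1.3, matching the median of the Tlr4 knock-down control, or over 3; control wells and wells with under 50 cells never active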
- Calls: active = Tnf reporter clearly lowered or raised; inactive = no clear change in Tnf reporter
This is a random part of about 17,000 reagents tested. About 1,110 of all reagents (6.6%) were called active. 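Active means lowered or raised reporter signal; replicate intensities are raw and not normalised per plate.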 Reagents against one gene are numbered here.

no.	gene	reagent no.	Tnf reporter robust z-score	fewer than 50 cells in well	Tnf reporter intensity, replicate 1	Tnf reporter intensity, replicate 2	Outcome
1	S100a8 (GeneID 20201)	1	-0.29	enough cells in well	93.3	137	inactive
2	Pmf1 (GeneID 67037)	1		fewer than 50 cells per well; well left out of calls	70.7	167	inactive
3	Cntrob (GeneID 216846)	1		fewer than 50 cells per well; well left out of calls	181	84.3	inactive
4	Itih5 (GeneID 209378)	1	1.71	enough cells in well	329	189	inactive
5	Or5p57 (GeneID 56861)	1		fewer than 50 cells per well; well left out of calls	71.4	88.9	inactive
6	Rnpc3 (GeneID 67225)	1	-0.54	enough cells in well	143	54.3	inactive
7	Luc7l (GeneID 66978)	1	0.2	enough cells in well	209	150	inactive
8	Aimp1 (GeneID 13722)	1	-0.06	enough cells in well	274	209	inactive
9	Rfk (GeneID 54391)	1	-1.29	enough cells in well	102	98.9	inactive
10	Shfl (GeneID 319278)	1	0.4	enough cells in well	154	185	inactive
11	Dhx37 (GeneID 208144)	1	-0.61	enough cells in well	188	97.2	inactive
12	Clpp (GeneID 53895)	1	0.66	enough cells in well	351	207	inactive
13	Drd5 (GeneID 13492)	1		fewer than 50 cells per well; well left out of calls	60.9	144	inactive
14	Ccdc22 (GeneID 54638)	1	0.27	enough cells in well	193	133	inactive
15	Zcchc17 (GeneID 619605)	1	0.76	enough cells in well	262	104	inactive
16	Aspscr1 (GeneID 68938)	1	0.79	enough cells in well	177	214	inactive
17	Slc24a3 (GeneID 94249)	1	0.53	enough cells in well	125	113	inactive
18	Araf (GeneID 11836)	1	-0.86	enough cells in well	149	104	inactive
19	Klhl22 (GeneID 224023)	1	-0.82	enough cells in well	147	75.8	inactive
20	Gtpbp8 (GeneID 66067)	1	0.38	enough cells in well	329	77.6	inactive
21	Sh2d1b1 (GeneID 26904)	1		fewer than 50 cells per well; well left out of calls	119	65	inactive
22	Nkx2-4 (GeneID 228731)	1	-1.29	enough cells in well	113	64.2	inactive
23	Fshr (GeneID 14309)	1	0.38	enough cells in well	206	398	inactive
24	Tead2 (GeneID 21677)	1		fewer than 50 cells per well; well left out of calls	47.6	38.7	inactive
25	Hoxb3 (GeneID 15410)	1	-0.31	enough cells in well	194	186	inactive

6 entries from above, arranged by “Tnf reporter intensity, replicate 1”, ascending.
gene	reagent no.	Tnf reporter robust z-score	fewer than 50 cells in well	Tnf reporter intensity, replicate 1	Tnf reporter intensity, replicate 2	Outcome
Nkx2-4 (GeneID 228731)	1	-1.29	enough cells in well	113	64.2	inactive
Sh2d1b1 (GeneID 26904)	1		fewer than 50 cells per well; well left out of calls	119	65	inactive
Klhl22 (GeneID 224023)	1	-0.82	enough cells in well	147	75.8	inactive
Araf (GeneID 11836)	1	-0.86	enough cells in well	149	104	inactive
Fshr (GeneID 14309)	1	0.38	enough cells in well	206	398	inactive
Gtpbp8 (GeneID 66067)	1	0.38	enough cells in well	329	77.6	inactive

Next entries:
no.	gene	reagent no.	Tnf reporter robust z-score	fewer than 50 cells in well	Tnf reporter intensity, replicate 1	Tnf reporter intensity, replicate 2	Outcome
26	Kif1b (GeneID 16561)	1	-1.45	enough cells in well	123	76.3	active
27	Serpinb6b (GeneID 20708)	1	0.39	enough cells in well	94.6	135	inactive
28	Snf8 (GeneID 27681)	1	-1.27	enough cells in well	82.8	124	inactive
29	Spag16 (GeneID 66722)	1	1.08	enough cells in well	188	112	inactive
30	Ddt (GeneID 13202)	1		fewer than 50 cells per well; well left out of calls	64.9	27.8	inactive
31	Trappc9 (GeneID 76510)	1		fewer than 50 cells per well; well left out of calls	155	47.4	inactive
32	Cpxm1 (GeneID 56264)	1	-0.79	enough cells in well	131	134	inactive
33	Zg16 (GeneID 69036)	1	-0.28	enough cells in well	208	69.6	inactive
34	Foxl2 (GeneID 26927)	1	-0.6	enough cells in well	220	174	inactive
35	Zfp592 (GeneID 233410)	1	0.43	enough cells in well	124	164	inactive
36	Nek2 (GeneID 18005)	1	1.6	enough cells in well	349	203	inactive
37	Ikbip (GeneID 67454)	1	-0.25	enough cells in well	197	131	inactive
38	Ikbip (GeneID 67454)	2	0.31	enough cells in well	267	79.5	inactive
39	Copb2 (GeneID 50797)	1		fewer than 50 cells per well; well left out of calls	95.5	109	inactive
40	Or2y8 (GeneID 211472)	1	0.21	enough cells in well	209	119	inactive
